Test results reported in the supplement of paper PMC11624193, “Coupling cellular drug-target engagement to downstream pharmacology with CeTEAM” (Nature Communications, 2024).
Structures can show the parent of a compound that is named as a salt. Most of the hits are listed elsewhere, so they are rarer here than in the full data.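 Rule for the calls: active = log2 fold change beyond 2 SD from the library mean after excluding viability outliers; inactive = within 2 SD.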

Biological target: PARP1 L713F-nLuc biosensor (HCT116) (UniProt P09874)
Experiment: PARP1 L713F-nLuc/akaLuc ratio relative to DMSO control (biosensor stabilization) (fold change); higher = more PARP1 biosensor stabilization (target engagement / stabilizer), active = hit call of the paper
Details: stock concentration (mM; final µM = stock mM x 1): 10; 24 h

Compound | PARP1 L713F-nLuc/akaLuc ratio
Cc1ccc(C(=O)NCCCCCC(=O)Nc2ccccc2N)cc1 | inactive: 0.928
C[C@@H]1C[C@H](N)C[C@H](c2ccncc2NC(=O)c2ccc(F)c(-c3c(F)cccc3F)n2)C1 [PIM-447 (dihydrochloride)] | inactive: 1.48
